Assay results published in article PMC7350744.
Results are given in words; binding and its absence hold for the method and conditions named. Binding seen in cells or lysates may run through a third protein. Some binding calls cover weakened binding; strength is not graded here. Each block holds one binder with its values, some of them ahead of it.

Protein sequences, listed by entry. Tags and fused reporters are not part of them.
UniProt O14497: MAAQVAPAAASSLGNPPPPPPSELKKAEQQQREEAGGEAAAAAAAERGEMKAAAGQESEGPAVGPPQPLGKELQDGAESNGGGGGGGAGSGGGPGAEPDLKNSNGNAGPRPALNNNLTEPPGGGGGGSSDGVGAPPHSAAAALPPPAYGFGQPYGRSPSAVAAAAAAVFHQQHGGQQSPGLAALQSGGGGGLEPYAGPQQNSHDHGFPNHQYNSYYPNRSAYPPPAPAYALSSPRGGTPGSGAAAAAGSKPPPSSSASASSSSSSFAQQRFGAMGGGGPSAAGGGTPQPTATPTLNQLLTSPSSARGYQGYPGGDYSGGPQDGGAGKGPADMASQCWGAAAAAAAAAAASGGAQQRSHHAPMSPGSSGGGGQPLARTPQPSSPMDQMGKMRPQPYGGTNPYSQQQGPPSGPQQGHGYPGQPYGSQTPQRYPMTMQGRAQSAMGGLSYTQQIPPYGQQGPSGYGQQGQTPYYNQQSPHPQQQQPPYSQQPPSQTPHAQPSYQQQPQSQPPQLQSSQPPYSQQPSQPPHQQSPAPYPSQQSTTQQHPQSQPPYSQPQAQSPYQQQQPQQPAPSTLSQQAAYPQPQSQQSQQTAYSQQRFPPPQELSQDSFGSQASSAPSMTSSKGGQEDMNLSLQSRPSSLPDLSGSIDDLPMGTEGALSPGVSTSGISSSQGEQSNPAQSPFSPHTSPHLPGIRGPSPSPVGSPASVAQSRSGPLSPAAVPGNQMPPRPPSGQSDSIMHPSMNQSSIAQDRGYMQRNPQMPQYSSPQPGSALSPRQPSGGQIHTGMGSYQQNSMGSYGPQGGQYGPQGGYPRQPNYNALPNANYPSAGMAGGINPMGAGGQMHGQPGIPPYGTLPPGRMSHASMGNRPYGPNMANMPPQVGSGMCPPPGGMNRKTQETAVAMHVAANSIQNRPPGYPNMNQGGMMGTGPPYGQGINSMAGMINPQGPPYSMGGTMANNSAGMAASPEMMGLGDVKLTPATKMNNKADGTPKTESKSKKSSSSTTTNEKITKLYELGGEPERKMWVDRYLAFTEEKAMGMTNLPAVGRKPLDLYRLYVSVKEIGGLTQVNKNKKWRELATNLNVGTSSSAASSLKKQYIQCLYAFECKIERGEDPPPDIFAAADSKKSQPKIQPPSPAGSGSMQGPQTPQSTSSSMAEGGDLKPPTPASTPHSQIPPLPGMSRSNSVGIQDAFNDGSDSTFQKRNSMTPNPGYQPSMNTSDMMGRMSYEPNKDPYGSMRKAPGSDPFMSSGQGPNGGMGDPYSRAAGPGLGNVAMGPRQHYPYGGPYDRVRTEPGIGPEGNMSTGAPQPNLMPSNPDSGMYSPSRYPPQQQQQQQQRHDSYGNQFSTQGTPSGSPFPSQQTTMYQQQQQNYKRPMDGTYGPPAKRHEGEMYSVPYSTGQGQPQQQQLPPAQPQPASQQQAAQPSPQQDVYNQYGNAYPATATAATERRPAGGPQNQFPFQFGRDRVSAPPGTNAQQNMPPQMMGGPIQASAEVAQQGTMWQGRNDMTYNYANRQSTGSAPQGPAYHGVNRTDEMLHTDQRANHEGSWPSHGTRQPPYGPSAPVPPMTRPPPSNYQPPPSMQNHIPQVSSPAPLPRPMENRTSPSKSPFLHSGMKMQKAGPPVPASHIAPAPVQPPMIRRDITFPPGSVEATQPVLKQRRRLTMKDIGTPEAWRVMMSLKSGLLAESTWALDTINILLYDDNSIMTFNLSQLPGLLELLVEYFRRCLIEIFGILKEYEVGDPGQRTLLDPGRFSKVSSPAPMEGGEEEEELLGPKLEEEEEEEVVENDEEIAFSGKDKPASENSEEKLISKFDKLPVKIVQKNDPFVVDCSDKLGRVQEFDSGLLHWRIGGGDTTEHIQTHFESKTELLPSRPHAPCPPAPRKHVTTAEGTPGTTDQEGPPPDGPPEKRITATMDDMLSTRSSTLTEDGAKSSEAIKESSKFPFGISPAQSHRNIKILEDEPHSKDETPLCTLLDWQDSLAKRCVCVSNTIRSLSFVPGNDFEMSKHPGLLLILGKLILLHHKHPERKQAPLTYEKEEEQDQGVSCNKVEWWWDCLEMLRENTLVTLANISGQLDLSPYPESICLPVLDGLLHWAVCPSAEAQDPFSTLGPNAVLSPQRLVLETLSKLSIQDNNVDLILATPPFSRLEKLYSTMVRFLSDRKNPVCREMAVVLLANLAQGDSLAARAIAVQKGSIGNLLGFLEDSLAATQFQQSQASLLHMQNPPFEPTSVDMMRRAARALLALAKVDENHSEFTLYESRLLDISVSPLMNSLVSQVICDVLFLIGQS

Molecular target: ARID1A (human (endogenous in H9 hESCs)) (UniProt O14497)
Assay: co-IP; endogenous proteins from H9 hESC lysates (undifferentiated T0, day 2 or day 6 of cardiac differentiation); Pierce Classic Magnetic IP/Co-IP Kit; detected by Western blotting; IP with anti-ARID1A antibody and, in the reverse direction, of T or MEF2C

binding: binds
B1: TBXT (T) (protein, UniProt O15178 1-435)
chain: MSSPGTESAGKSLQYRVDHLLSAVENELQAGSEKGDPTERELRVGLEESELWLRFKELTNEMIVTKNGRRMFPVLKVNVSGLDPNAMYSFLLDFVAADNHRWKYVNGEWVPGGKPEPQAPSCVYIHPDSPNFGAHWMKAPVSFSKVKLTNKLNGGGQIMLNSLHKYEPRIHIVRVGGPQRMITSHCFPETQFIAVTAYQNEEITALKIKYNPFAKAFLDAKERSDHKEMMEEPGDSQQPGYSQWGWLLPGTSTLCPPANPHPQFGGALSLPSTHSCDRYPTLRSHRSSPYPSPYAHRNNSPTYSDNSPACLSMLQSHDNWSSLGMPAHPSMLPVSHNASPPTSSSQYPSLWSVSNGAVTPGSQAAAVSNGLGAQFFRGSPAHYTPLTHPVSAPSSSGSPLYEGAAAATDIVDSQYDAAAQGRLIASWTPVSPPSM

binding: binds
B2: repressor element-1 silencing transcription/neuron-restrictive silencer factor (REST/NRSF) (protein, UniProt Q13127 1-1097)
chain: MATQVMGQSSGGGGLFTSSGNIGMALPNDMYDLHDLSKAELAAPQLIMLANVALTGEVNGSCCDYLVGEERQMAELMPVGDNNFSDSEEGEGLEESADIKGEPHGLENMELRSLELSVVEPQPVFEASGAPDIYSSNKDLPPETPGAEDKGKSSKTKPFRCKPCQYEAESEEQFVHHIRVHSAKKFFVEESAEKQAKARESGSSTAEEGDFSKGPIRCDRCGYNTNRYDHYTAHLKHHTRAGDNERVYKCIICTYTTVSEYHWRKHLRNHFPRKVYTCGKCNYFSDRKNNYVQHVRTHTGERPYKCELCPYSSSQKTHLTRHMRTHSGEKPFKCDQCSYVASNQHEVTRHARQVHNGPKPLNCPHCDYKTADRSNFKKHVELHVNPRQFNCPVCDYAASKKCNLQYHFKSKHPTCPNKTMDVSKVKLKKTKKREADLPDNITNEKTEIEQTKIKGDVAGKKNEKSVKAEKRDVSKEKKPSNNVSVIQVTTRTRKSVTEVKEMDVHTGSNSEKFSKTKKSKRKLEVDSHSLHGPVNDEESSTKKKKKVESKSKNNSQEVPKGDSKVEENKKQNTCMKKSTKKKTLKNKSSKKSSKPPQKEPVEKGSAQMDPPQMGPAPTEAVQKGPVQVEPPPPMEHAQMEGAQIRPAPDEPVQMEVVQEGPAQKELLPPVEPAQMVGAQIVLAHMELPPPMETAQTEVAQMGPAPMEPAQMEVAQVESAPMQVVQKEPVQMELSPPMEVVQKEPVQIELSPPMEVVQKEPVKIELSPPIEVVQKEPVQMELSPPMGVVQKEPAQREPPPPREPPLHMEPISKKPPLRKDKKEKSNMQSERARKEQVLIEVGLVPVKDSWLLKESVSTEDLSPPSPPLPKENLREEASGDQKLLNTGEGNKEAPLQKVGAEEADESLPGLAANINESTHISSSGQNLNTPEGETLNGKHQTDSIVCEMKMDTDQNTRENLTGINSTVEEPVSPMLPPSAVEEREAVSKTALASPPATMAANESQEIDEDEGIHSHEGSDLSDNMSEGSDDSGLHGARPVPQESSRKNAKEALAVKAAKGDFVCIFCDRSFRKGKDYSKHLNRHLVNVYYLEEAAQGQE
